# Reference: PubChem BioAssay AID540256 (National Center for Advancing Translational Sciences (NCATS), 2011)
# Out of some 300,000 compounds screened, about 3,700 (1.2%) were called active. Inconclusive results, whose numbers are uncertain, are shown with a selection of clear calls. Calls come from the whole dose curve; tested in HEK293 cells. A potency beside an inconclusive call is a rough fit, not a confirmed value.
# Experiment: qHTS for Inhibitors of binding or entry into cells for Lassa Virus; note: nearly all actives have a fitted effect of over 50% in size
# Details: Lassa virus pseudotype entry inhibition, cell reporter; activity change, negative = inhibition: at 37.9 µM (top of the series) unless noted
# % is set by controls: 0 for no effect and ±100 for the full control effect; potency is the fitted concentration of half-maximal effect.
SMILES,"activity change, negative = inhibition",Potency
CCOC(=O)c1ccccc1NC1CC(=O)N(c2ccccc2C)C1=O (stereo not drawn),inactive: 10.5%,–
COc1ccc(-n2c(=O)c3c4c(sc3n(CC(=O)Nc3cc(C)[nH]n3)c2=O)CCCC4)c(OC)c1,–,"inconclusive: 25.1 µM [inhibitor, single point]"
CCN(CC)S(=O)(=O)c1ccc(C)c(NC(=O)CSc2nc3ccccc3[nH]2)c1,–,"inconclusive: 7.94 µM [inhibitor, partial curve, poor fit]"
CCS(=O)(=O)n1nc(-c2ccc(Cl)cc2)nc1SC,inactive: 13.9%,–
COC(=O)CSc1nc2cc3c(cc2cc1C#N)OCO3,–,"inconclusive: 35.5 µM [inhibitor, single point]"
Cc1cccc(NC(=O)Cn2c(=O)nc(-c3ccccc3)c3ccccc32)c1C,–,"inconclusive: 1.58 µM [inhibitor, partial curve, poor fit]"
CN1c2ccccc2C(C)(C)C12CC(c1ccc(S(=O)(=O)N3CCCCC3)cc1)=NO2 (stereo not drawn),–,active: 0.184 µM
CCn1c2ccccc2c2cc(CN3CCN(Cc4cc(OC)ccc4O)CC3)ccc21,–,"inconclusive: 12.6 µM [inhibitor, partial curve, poor fit]"
O=c1[nH][nH]c(-c2ccccc2O)c1C(C[N+](=O)[O-])c1ccc(Br)cc1 (stereo not drawn),–,"inconclusive: 20 µM [inhibitor, partial curve, poor fit]"
CCOc1ccc(-n2c(N)c(-c3nc4ccccc4n3C)c3nc4ccccc4nc32)cc1,inactive: 7.6%,–
CC(=O)Nc1cccc(-c2cn3ccccc3n2)c1,inactive: 4.23%,–
CCOc1ccc(CN2C(=O)c3ccccc3C2C(=O)NCC2CCCO2)cc1 (stereo not drawn),–,"inconclusive: 11.2 µM [inhibitor, single point]"
Cc1ccc(Cl)cc1N1CCN(C(=O)c2cc3c(=O)[nH]c4ccccc4c3n2C)CC1,–,"inconclusive: 0.447 µM [inhibitor, full curve, poor fit]"
Cc1cccc(NC(=O)COc2coc(CN3CCc4ccccc4C3)cc2=O)c1,–,"inconclusive: 0.501 µM [inhibitor, full curve, poor fit]"
CN(Cc1ccccc1)Cc1nc2c(c(=O)n(C)c(=O)n2C)n1CCCc1ccccc1,–,"inconclusive: 29.1 µM [inhibitor, single point]"
COc1cccc(C2CC(C(F)(F)F)n3nc(C(=O)Nc4c(C)n(C)n(-c5ccccc5)c4=O)cc3N2)c1 (stereo not drawn),–,"inconclusive: 35.5 µM [inhibitor, single point]"
Cc1ccc(S(=O)(=O)N2CCC(=O)N(C(COCc3cccc(C(F)(F)F)c3)C(C)C)CC2)cc1 (stereo not drawn),–,"inconclusive: 23.1 µM [inhibitor, single point]"
CC(NC(=O)Nc1ccc(Cl)c(Cl)c1)C(c1ccccc1)N1CCOCC1 (stereo not drawn),–,"inconclusive: 29.1 µM [inhibitor, single point]"
Cc1ccc(S(=O)(=O)N(C)CC(=O)O/N=C(\N)c2cccnc2)cc1,inactive: 0.0724%,–
Cc1cccc(CNC(=O)Cn2ccc3cc(S(=O)(=O)N4CCCC4)ccc32)c1,–,"inconclusive: 11.2 µM [activator, partial curve]"
O=C(Nc1nncs1)C12CC3CC(CC(Cl)(C3)C1)C2,inactive: -6.93%,–
Cc1cc(=O)oc2cc(OC(C)C(=O)N3CCCc4ccccc43)ccc12 (stereo not drawn),inactive: 1.11%,–

# Entries of single compounds, looked up by structure. Order of values: activity change, negative = inhibition	Potency
# `CCN(CC)S(=O)(=O)c1ccc(C)c(NC(=O)CSc2nc3ccccc3[nH]2)c1` as listed: –	inconclusive: 7.94 µM [inhibitor, partial curve, poor fit]
# `CC(NC(=O)Nc1ccc(Cl)c(Cl)c1)C(c1ccccc1)N1CCOCC1` (stereo not drawn) as listed: –	inconclusive: 29.1 µM [inhibitor, single point]
# `CCOc1ccc(-n2c(N)c(-c3nc4ccccc4n3C)c3nc4ccccc4nc32)cc1` as listed: inactive: 7.6%	–
# `CN(Cc1ccccc1)Cc1nc2c(c(=O)n(C)c(=O)n2C)n1CCCc1ccccc1` as listed: –	inconclusive: 29.1 µM [inhibitor, single point]

# The results go on:

SMILES,"activity change, negative = inhibition",Potency
Clc1ccc(-c2nnc(-c3ccco3)o2)cc1,–,"inconclusive: 2.91 µM [activator, full curve, poor fit]"
COc1cccc(-c2cc(C(=O)N/N=C/c3ccco3)c3ccccc3n2)c1,–,"inconclusive: 22.4 µM [inhibitor, single point]"
CCCn1c(SCC(=O)Nc2ccc(OC)cc2[N+](=O)[O-])n[nH]c1=O,–,"inconclusive: 1.26 µM [inhibitor, single point]"
CCC1(c2ccc(F)cc2)NC(=O)N(CC(=O)Nc2ccccc2C)C1=O (stereo not drawn),–,"inconclusive: 6.31 µM [inhibitor, single point]"
Oc1cccc2ccc(/C=C/c3c(F)cccc3Cl)nc12,–,active: 18.3 µM
Cn1cc(CN2CCCC(CO)(Cc3ccccc3)C2)c2ccccc21 (stereo not drawn),–,"inconclusive: 10 µM [inhibitor, partial curve, poor fit]"
CC1=CCn2c(=O)c3ccccc3c(=O)n2C1,inactive: -6.47% [at 46.1 µM],–
O=C(CN1CCC(c2nc3ccccc3s2)CC1)NCc1ccccc1,–,"inconclusive: 29.1 µM [inhibitor, single point]"
CC(=O)N1CCCc2cc(S(=O)(=O)N(C)CC(=O)Nc3cccc(C)c3C)ccc21,inactive: -0.914% [at 46.1 µM],–
CCOc1ccc(CCNC(=O)c2cn(CC)c3ccc(S(=O)(=O)N4CCCCCC4)cc3c2=O)cc1OCC,inactive: -12% [at 46.1 µM],–
Cc1ccc2c(c1)nnn2C1CCN(S(=O)(=O)c2cccc(S(=O)(=O)N(C)C)c2)CC1,–,"inconclusive: 20.6 µM [inhibitor, single point]"
O=C(c1ccco1)N(CCC(c1ccccc1)c1ccco1)Cc1ccc(F)cc1 (stereo not drawn),–,active: 23.1 µM
O=C(Nc1ccccc1)Nc1cc(Cl)cc(Cl)c1,–,"inconclusive: 35.5 µM [inhibitor, single point]"
Cc1[nH]c2ccc(C(=O)NCCCN3CCCCCC3)cc2c1C,–,"inconclusive: 3.98 µM [inhibitor, single point]"
CC(C)C(=O)N1CCN(c2ccc(NC(=O)c3ccc4c(c3)OCCO4)cc2Cl)CC1,–,active: 25.9 µM
CC(C)Oc1ccc(C(CCN)C2CCCCC2)cc1 (stereo not drawn),–,"inconclusive: 15.8 µM [inhibitor, single point]"
O=C1c2ccccc2C(=O)N1Cc1nc2ccccc2c(=O)n1CCN1CCOCC1,–,"inconclusive: 3.66 µM [inhibitor, single point]"
Cc1ccc(C)c(S(=O)(=O)N2CCCC2CNC(=O)C(=O)NC2CC2)c1 (stereo not drawn),inactive: -9.07%,–
O=C(NC(NC(=S)Nc1ccc(Cl)cc1Cl)C(Cl)(Cl)Cl)c1cccc([N+](=O)[O-])c1 (stereo not drawn),–,"inconclusive: 5.17 µM [inhibitor, partial curve, poor fit]"
Cc1nnc(NC(=O)CCS(=O)(=O)c2ccccc2)s1,–,"inconclusive: 25.1 µM [inhibitor, single point]"
Oc1ccc(Nc2nc3ccccc3nc2Nc2ccc(O)cc2)cc1,–,"inconclusive: 15.8 µM [inhibitor, partial curve, poor fit]"
